Results published in paper PMC8058342.
Results are given in words; binding and its absence hold for the method and conditions named. In cells and extracts the contact can be indirect. Binding can be weak; no strength is given.

Amino acid sequences for entries named in this document (tags omitted). A change or cut given only in a name is not applied to a line headed by its entry. Residues count along the entry.
UniProt P20827, residues 19-182: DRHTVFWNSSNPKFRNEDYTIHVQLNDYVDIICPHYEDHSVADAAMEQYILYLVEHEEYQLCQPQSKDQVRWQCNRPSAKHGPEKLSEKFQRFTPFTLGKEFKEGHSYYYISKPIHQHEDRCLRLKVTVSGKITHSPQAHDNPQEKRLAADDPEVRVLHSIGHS
UniProt P29317: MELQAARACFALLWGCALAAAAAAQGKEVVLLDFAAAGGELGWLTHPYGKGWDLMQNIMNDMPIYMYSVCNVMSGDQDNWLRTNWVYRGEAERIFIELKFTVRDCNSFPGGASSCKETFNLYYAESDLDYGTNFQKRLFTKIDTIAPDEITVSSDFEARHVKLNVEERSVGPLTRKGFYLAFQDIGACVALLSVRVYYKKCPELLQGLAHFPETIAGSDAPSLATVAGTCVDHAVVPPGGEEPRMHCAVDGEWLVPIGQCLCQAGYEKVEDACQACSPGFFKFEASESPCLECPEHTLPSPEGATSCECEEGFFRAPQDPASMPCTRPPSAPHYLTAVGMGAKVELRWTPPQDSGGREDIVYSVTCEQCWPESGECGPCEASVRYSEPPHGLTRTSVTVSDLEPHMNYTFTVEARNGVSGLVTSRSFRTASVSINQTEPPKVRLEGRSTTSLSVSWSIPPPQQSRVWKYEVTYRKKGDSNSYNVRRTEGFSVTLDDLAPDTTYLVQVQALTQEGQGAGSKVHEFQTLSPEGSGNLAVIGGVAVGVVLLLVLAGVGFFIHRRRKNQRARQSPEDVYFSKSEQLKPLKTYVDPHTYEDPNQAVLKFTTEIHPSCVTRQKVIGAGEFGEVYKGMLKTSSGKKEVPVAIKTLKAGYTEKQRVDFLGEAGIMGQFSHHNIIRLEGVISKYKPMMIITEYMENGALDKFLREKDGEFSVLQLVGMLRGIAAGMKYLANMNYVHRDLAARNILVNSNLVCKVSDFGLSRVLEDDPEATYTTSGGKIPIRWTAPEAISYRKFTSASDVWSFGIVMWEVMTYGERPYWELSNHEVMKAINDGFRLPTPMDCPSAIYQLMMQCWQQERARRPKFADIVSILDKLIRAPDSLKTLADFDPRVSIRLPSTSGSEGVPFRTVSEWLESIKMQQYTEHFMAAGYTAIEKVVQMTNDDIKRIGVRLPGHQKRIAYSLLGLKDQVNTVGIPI

Biological target: Flag-tagged Ephrin A1 (human) (UniProt P20827)
Assay: co-IP; Flag-Ephrin A1 co-transfected with mCherry-EphA2 or mutants in HEK-293T; lysis in 40 mM Tris, 150 mM NaCl, 1% Triton X-100, 50 mM NaF, 5 mM Na3VO4, 2 mM EDTA; precipitated with anti-Flag antibody and protein A agarose, Western blot

binding: binds
Substance: mCherry-tagged EphA2-ΔS (deletion of the EphA2 SAM domain) (from UniProt P29317) (receptor)
